Experimental data: article PMC5345230, “Disruption of TWIST1-RELA binding by mutation and competitive inhibition to validate the TWIST1 WR domain as a therapeutic target” (BMC Cancer, 2017)
Positions count from the first letter of the chain named. Numbers in names are those of the source. Results are given in words; binding and its absence hold for the method and conditions named. In cells and extracts the contact can be indirect. Some binding calls cover weakened binding; strength is not graded here. Values belong to the molecule of their own block, whether it stands above or below them.

The chains behind the UniProt entries cited, without tags or fusion partners.
UniProt Q04206: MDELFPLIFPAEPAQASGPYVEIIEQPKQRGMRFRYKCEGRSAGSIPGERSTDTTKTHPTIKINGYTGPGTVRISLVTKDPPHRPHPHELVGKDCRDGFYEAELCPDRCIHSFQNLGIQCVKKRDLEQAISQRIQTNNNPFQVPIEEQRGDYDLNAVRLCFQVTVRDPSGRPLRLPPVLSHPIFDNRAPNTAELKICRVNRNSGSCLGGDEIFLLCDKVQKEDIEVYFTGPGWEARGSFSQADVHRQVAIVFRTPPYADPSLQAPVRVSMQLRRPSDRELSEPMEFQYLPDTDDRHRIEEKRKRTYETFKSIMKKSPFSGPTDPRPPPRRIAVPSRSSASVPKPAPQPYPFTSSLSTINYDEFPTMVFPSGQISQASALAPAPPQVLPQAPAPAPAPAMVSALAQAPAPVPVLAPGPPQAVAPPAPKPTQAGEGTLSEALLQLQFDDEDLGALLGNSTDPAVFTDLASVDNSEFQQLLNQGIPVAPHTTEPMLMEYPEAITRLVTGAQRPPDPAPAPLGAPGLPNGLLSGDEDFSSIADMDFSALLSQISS

Assays:
[1] = target: T1, RELA (wild type), NF-kB subunit p65 (UniProt Q04206 1-551); experiment: co-IP; as a1 (RELA pulldown), with TWIST1, RELA and rising shares of GFP-WR against control GFP co-expressed, total GFP held constant
[2] = target: GFP-WR fusion protein (eGFP fused to the TWIST1 WR domain) (human) (UniProt Q15672); experiment: co-IP; HEK-293 cells transfected with TWIST1, RELA and rising shares of GFP-WR against control GFP; RIPA lysate; pulldown with rabbit anti-GFP and Protein A/G agarose; western blot for TWIST1; ratio of TWIST1 to GFP, normalized to inputs
[3] = target: T1, RELA (wild type), NF-kB subunit p65; experiment: co-IP; HEK-293 cells transiently transfected with TWIST1 and RELA alleles; RIPA lysate, pre-cleared; pulldown with rabbit anti-RELA and Protein A/G agarose at 4 °C overnight, five washes with PBS; western blot for TWIST1; ratio of TWIST1 to RELA, each normalized to its input

Molecule: TWIST1 (wild type) (from UniProt Q15672 1-202)
binding [1]: binds
binding [2]: binds
binding [3]: binds

B1: TWIST1 E193A (natural protein, human, UniProt Q15672 1-202, looked up)
chain: MMQDVSSSPVSPADDSLSNSEEEPDRQQPPSGKRGGRKRRSSRRSAGGGAGPGGAAGGGVGGGDEPGSPAQGKRGKKSAGCGGGGGAGGGGGSSSGGGSPQSYEELQTQRVMANVRERQRTQSLNEAFAALRKIIPTLPSDKLSKIQTLKLAARYIDFLYQVLQSDELDSKMASCSYVAHERLSYAFSVWRMAGAWSMSASH
binding [3]: binds

Now from value to molecule:

binding [3]: binds weakly
Molecule: TWIST1 deltaWR (all twenty amino acids of the WR domain deleted) (from UniProt Q15672 1-182) (domain or fragment)

binding [3]: binds
B2: TWIST1 W190A (natural protein, human, UniProt Q15672 1-202, looked up)
chain: B1 chain with W190A, A193E

binding [3]: binds
B3: TWIST1 R191A (natural protein, human, UniProt Q15672 1-202, looked up)
chain: B1 chain with R191A, A193E
